Results reported in patent US20070134261A1, “Effectors of innate immunity” (priority 2001, published 2007).
Not every detail of the peptide structures is certain; ends, links or a residue may be inferred. No end group written: not given here.

Tested on: human CD14+ monocytes
Assay: Human 21K DNA microarrays of CD14+ monocytes from PBMC stimulated with SEQ ID NO: 7 and/or LPS (Tables 69-72)
Type: cell-based

KSRIVPAIPVSLL [SEQ ID NO: 7]
Fold Change SEQ ID NO: 7 (gene C13orf17): 1.6 | Fold Change SEQ ID NO: 7 (gene C14orf132): 3.1 | Fold Change by LPS + SEQ 7 (gene C14orf166): 1.7 fold | Fold Change by LPS + SEQ 7 (gene C15orf15, human monocytes): 6.9 fold | Fold Change by LPS + SEQ 7 (gene C16orf3, human monocytes): 3.6 fold | Fold Change by LPS + SEQ 7 (gene C16orf44): 2.1 fold | Fold Change by LPS + SEQ 7 (gene C20orf26, human monocytes): 5.1 fold | Fold Change by LPS + SEQ 7 (gene C20orf85): 1.6 fold | Fold Change SEQ ID NO: 7 (gene C20orf107): 2.6 | Fold Change by LPS + SEQ 7 (gene C20orf108, human monocytes): 5.5 fold | Fold Change by LPS + SEQ 7 (gene C20orf135): 1.6 fold | Fold Change SEQ ID NO: 7 (gene C20orf173): 1.7 | Fold Change by LPS + SEQ 7 (gene C21orf33): −1.5 fold | Fold Change by LPS + SEQ 7 (gene C21orf42, human monocytes): 3.0 fold | Fold Change by LPS + SEQ 7 (gene C21orf57): −1.7 fold | Fold Change by LPS + SEQ 7 (gene C21orf108, human monocytes): 6.3 fold | Fold Change by LPS + SEQ 7 (gene C21orf124): 1.8 fold | Fold Change by LPS + SEQ 7 (gene C21orf127, human monocytes): 3.2 fold | Fold Change by LPS + SEQ 7 (gene C22orf3): −1.9 fold | Fold Change by LPS + SEQ 7 (gene CABP2): −2.0 fold | Fold Change by LPS + SEQ 7 (gene CACNA1B): 1.7 fold | Fold Change by LPS + SEQ 7 (gene CACNA1H): 2.2 fold | Fold Change SEQ ID NO: 7 (gene CACNA2D2): 1.6 | Fold Change by LPS + SEQ 7 (gene CACNA2D3): 1.5 fold | Fold Change by LPS + SEQ 7 (gene CALD1): −1.6 fold | Fold Change by LPS + SEQ 7 (gene CALM3): −1.9 fold | Fold Change by LPS + SEQ 7 (gene CAPZB): 1.6 fold | Fold Change by LPS + SEQ 7 (gene CASP4): 1.6 fold | Fold Change by LPS + SEQ 7 (gene CASP9): 1.7 fold | Fold Change SEQ ID NO: 7 (gene CASR): 2.1 | Fold Change SEQ ID NO: 7 (gene CBFA2T3): 3.1 | Fold Change by LPS + SEQ 7 (gene CBX1): −1.6 fold | Fold Change by LPS + SEQ 7 (gene CBX5): 1.5 fold | Fold Change by LPS + SEQ 7 (gene CCDC5, human monocytes): 3.2 fold | Fold Change by LPS + SEQ 7 (gene CCDC7): 1.5 fold | Fold Change by LPS + SEQ 7 (gene CCL2, human monocytes): 2.9 fold | Fold Change by LPS + SEQ 7 (gene CCL7, human monocytes): 3.9 fold | Fold Change by LPS + SEQ 7 (gene CCL20, human monocytes): 5.1 fold | Fold Change by LPS + SEQ 7 (gene CCL23, human monocytes): 4.5 fold | Fold Change SEQ ID NO: 7 (gene CCNB1IP1): 2.1 | Fold Change by LPS + SEQ 7 (gene CCNB1IP1, human monocytes): 2.3 fold | Fold Change by LPS + SEQ 7 (gene CCR7, human monocytes): 3.5 fold | Fold Change by LPS + SEQ 7 (gene CCS, human monocytes): 6.7 fold | Fold Change by LPS + SEQ 7 (gene CD4): −2.1 fold | Fold Change by LPS + SEQ 7 (gene CD22, human monocytes): 2.5 fold | Fold Change by LPS + SEQ 7 (gene CD36): −5.8 fold | Fold Change by LPS + SEQ 7 (gene CD44): 2.0 fold | Fold Change SEQ ID NO: 7 (gene CD48): −1.5 | Fold Change by LPS + SEQ 7 (gene CD58): 1.6 fold | Fold Change by LPS + SEQ 7 (gene CD79A): 1.8 fold | Fold Change SEQ ID NO: 7 (gene CD81): 2.1 | Fold Change by LPS + SEQ 7 (gene CD81): 2.1 fold | Fold Change by LPS + SEQ 7 (gene CD83): 1.5 fold | Fold Change SEQ ID NO: 7 (gene CD151): 1.9 | Fold Change by LPS + SEQ 7 (gene CD151, human monocytes): 2.4 fold | Fold Change by LPS + SEQ 7 (gene CD226, human monocytes): 53.2 fold | Fold Change SEQ ID NO: 7 (gene CDC2L1): 2.3 | Fold Change by LPS + SEQ 7 (gene CDC14B): −1.9 fold | Fold Change SEQ ID NO: 7 (gene CDC34): 1.8 | Fold Change by LPS + SEQ 7 (gene CDC42EP4): 1.9 fold | Fold Change SEQ ID NO: 7 (gene CDCA4): 1.6 | Fold Change by LPS + SEQ 7 (gene CDH8): −1.6 fold | Fold Change by LPS + SEQ 7 (gene CDK2AP1): −2.0 fold | Fold Change by LPS + SEQ 7 (gene CDK7, human monocytes): 8.6 fold | Fold Change SEQ ID NO: 7 (gene CDY1): −1.6 | Fold Change by LPS + SEQ 7 (gene CEBPD, human monocytes): 2.5 fold | Fold Change by LPS + SEQ 7 (gene CENTB2, human monocytes): 7.4 fold | Fold Change by LPS + SEQ 7 (gene CENTG3): −1.6 fold | Fold Change SEQ ID NO: 7 (gene CFL2): 1.6 | Fold Change SEQ ID NO: 7 (gene CFLAR): 1.5 | Fold Change by LPS + SEQ 7 (gene CHC1): 1.6 fold | Fold Change SEQ ID NO: 7 (gene CHCHD3): 1.8 | Fold Change by LPS + SEQ 7 (gene CHCHD5, human monocytes): 4.1 fold | Fold Change by LPS + SEQ 7 (gene CHN2): 1.5 fold | Fold Change by LPS + SEQ 7 (gene CHRFAM7A): 1.7 fold | Fold Change by LPS + SEQ 7 (gene CHRM1): 1.9 fold | Fold Change by LPS + SEQ 7 (gene CHRNA1, human monocytes): 21.3 fold | Fold Change by LPS + SEQ 7 (gene CKMT1, human monocytes): 17.8 fold | Fold Change by LPS + SEQ 7 (gene CLCA1): 1.6 fold | Fold Change by LPS + SEQ 7 (gene CLECSF6): −1.6 fold | Fold Change by LPS + SEQ 7 (gene CLECSF14): −1.7 fold | Fold Change by LPS + SEQ 7 (gene CLGN): −2.2 fold | Fold Change by LPS + SEQ 7 (gene CLK3): 1.7 fold | Fold Change by LPS + SEQ 7 (gene CNDP2, CN2, CPGL): 1.6 fold | Fold Change by LPS + SEQ 7 (gene CNTN5, human monocytes): 40.5 fold | Fold Change by LPS + SEQ 7 (gene CNTN6, human monocytes): 9.2 fold | Fold Change SEQ ID NO: 7 (gene COG3): 1.6 | Fold Change by LPS + SEQ 7 (gene COL3A1, human monocytes): 2.4 fold | Fold Change SEQ ID NO: 7 (gene COL5A1): 3.2 | Fold Change SEQ ID NO: 7 (gene COL5A2): −1.5 | Fold Change SEQ ID NO: 7 (gene COL9A2): 2.0 | Fold Change by LPS + SEQ 7 (gene COL11A2): −1.5 fold | Fold Change by LPS + SEQ 7 (gene COLEC12, human monocytes): 3.7 fold | Fold Change by LPS + SEQ 7 (gene COQ4): −1.8 fold | Fold Change by LPS + SEQ 7 (gene COQ7): 1.8 fold | Fold Change SEQ ID NO: 7 (gene CORO1A): 1.6 | Fold Change by LPS + SEQ 7 (gene COX7B, human monocytes): 2.8 fold | Fold Change by LPS + SEQ 7 (gene COX11): 1.9 fold | Fold Change by LPS + SEQ 7 (gene CPD): 2.1 fold | Fold Change SEQ ID NO: 7 (gene CPEB4): 2.7 | Fold Change SEQ ID NO: 7 (gene CPS1): 1.5 | Fold Change by LPS + SEQ 7 (gene CPSF6): 1.6 fold | Fold Change SEQ ID NO: 7 (gene CRHBP): 1.6 | Fold Change SEQ ID NO: 7 (gene CRHR1): 1.5 | Fold Change SEQ ID NO: 7 (gene CRIM1): 1.8 | Fold Change by LPS + SEQ 7 (gene CRYZL1): −1.7 fold | Fold Change by LPS + SEQ 7 (gene CST3): 1.5 fold | Fold Change by LPS + SEQ 7 (gene CSTF1, human monocytes): 4.0 fold | Fold Change by LPS + SEQ 7 (gene CTLA4, human monocytes): 2.7 fold | Fold Change by LPS + SEQ 7 (gene CUL4A): 1.6 fold | Fold Change by LPS + SEQ 7 (gene CUL5): −1.5 fold | Fold Change by LPS + SEQ 7 (gene CUL7): −1.5 fold | Fold Change by LPS + SEQ 7 (gene CXCL2, human monocytes): 3.3 fold | Fold Change by LPS + SEQ 7 (gene CXXC5): −1.7 fold | Fold Change by LPS + SEQ 7 (gene CYB5): −2.0 fold | Fold Change by LPS + SEQ 7 (gene CYLC2, human monocytes): 12.7 fold | Fold Change by LPS + SEQ 7 (gene CYP1B1): −1.6 fold | Fold Change by LPS + SEQ 7 (gene CYP3A4): 1.7 fold | Fold Change by LPS + SEQ 7 (gene CYP19A1): 2.2 fold | Fold Change by LPS + SEQ 7 (gene CYorf15A): 1.9 fold | Fold Change by LPS + SEQ 7 (gene DAAM1): 1.5 fold | Fold Change SEQ ID NO: 7 (gene DAB1): 2.2 | Fold Change by LPS + SEQ 7 (gene DAB1): 1.9 fold | Fold Change SEQ ID NO: 7 (gene DACH2): 2.5 | Fold Change by LPS + SEQ 7 (gene DACH2 (first entry), human monocytes): 4.5 fold | Fold Change by LPS + SEQ 7 (gene DACH2 (second entry), human monocytes): 2.5 fold | Fold Change by LPS + SEQ 7 (gene DAZAP1, human monocytes): 3.7 fold | Fold Change SEQ ID NO: 7 (gene DBC1): 2.0 | Fold Change by LPS + SEQ 7 (gene DBI, human monocytes): 3.4 fold | Fold Change by LPS + SEQ 7 (gene DBR1): −2.8 fold | Fold Change by LPS + SEQ 7 (gene DDC): −1.8 fold | Fold Change by LPS + SEQ 7 (gene DDX3Y): 1.8 fold | Fold Change by LPS + SEQ 7 (gene DDX21): 2.2 fold | Fold Change SEQ ID NO: 7 (gene DDX39): 2.3 | Fold Change by LPS + SEQ 7 (gene DDX39): 2.1 fold | Fold Change SEQ ID NO: 7 (gene DEF6): 1.8 | Fold Change by LPS + SEQ 7 (gene DEF6, human monocytes): 2.4 fold | Fold Change by LPS + SEQ 7 (gene DEFB127): −2.8 fold | Fold Change by LPS + SEQ 7 (gene DF, PALM, human monocytes): 4.3 fold | Fold Change by LPS + SEQ 7 (gene DGKA, human monocytes): 2.6 fold | Fold Change by LPS + SEQ 7 (gene DHRS3): 1.5 fold | Fold Change by LPS + SEQ 7 (gene DHRS8): −3.0 fold | Fold Change by LPS + SEQ 7 (gene DHRS9): −2.0 fold | Fold Change by LPS + SEQ 7 (gene DHX9): 1.7 fold | Fold Change by LPS + SEQ 7 (gene DHX16): 1.5 fold | Fold Change SEQ ID NO: 7 (gene DKK1): −1.8 | Fold Change by LPS + SEQ 7 (gene DLX5, human monocytes): 43.2 fold | Fold Change by LPS + SEQ 7 (gene DNAH5, human monocytes): 2.6 fold | Fold Change by LPS + SEQ 7 (gene DNAJA2): 1.6 fold | Fold Change by LPS + SEQ 7 (gene DNAJB6): 1.8 fold | Fold Change by LPS + SEQ 7 (gene DNAJC1, human monocytes): 26.9 fold | Fold Change by LPS + SEQ 7 (gene DNMT2, human monocytes): 4.2 fold | Fold Change by LPS + SEQ 7 (gene DNTTIP1): −1.7 fold | Fold Change SEQ ID NO: 7 (gene DOCK1): −1.6 | Fold Change SEQ ID NO: 7 (gene DOT1L): 1.5 | Fold Change SEQ ID NO: 7 (gene DPYS): 1.9 | Fold Change by LPS + SEQ 7 (gene DPYS): 1.6 fold | Fold Change SEQ ID NO: 7 (gene DSC1): 1.7 | Fold Change by LPS + SEQ 7 (gene DSG3, human monocytes): 2.3 fold | Fold Change SEQ ID NO: 7 (gene DSPG3): 1.8 | Fold Change by LPS + SEQ 7 (gene DSPG3): 1.9 fold | Fold Change by LPS + SEQ 7 (gene DUSP5): 2.2 fold | Fold Change by LPS + SEQ 7 (gene DUSP14, human monocytes): 11.6 fold | Fold Change by LPS + SEQ 7 (gene DVL2, human monocytes): 3.1 fold | Fold Change by LPS + SEQ 7 (gene DYRK1B): 1.6 fold | Fold Change SEQ ID NO: 7 (gene EAF1): 1.7 | Fold Change by LPS + SEQ 7 (gene EBF3, human monocytes): 2.8 fold | Fold Change by LPS + SEQ 7 (gene EBI3): 2.2 fold | Fold Change SEQ ID NO: 7 (gene ECGF1): 2.6 | Fold Change by LPS + SEQ 7 (gene ECGF1): 1.6 fold | Fold Change by LPS + SEQ 7 (gene ECM1): −1.7 fold | Fold Change SEQ ID NO: 7 (gene EDG2): 1.6 | Fold Change by LPS + SEQ 7 (gene EDG2): 1.9 fold | Fold Change by LPS + SEQ 7 (gene EDG4): 1.7 fold | Fold Change by LPS + SEQ 7 (gene EEF2K): −1.6 fold | Fold Change SEQ ID NO: 7 (gene EFHD1): −1.6 | Fold Change by LPS + SEQ 7 (gene EHD1): 1.7 fold | Fold Change SEQ ID NO: 7 (gene EHHADH): 2.1 | Fold Change by LPS + SEQ 7 (gene EHHADH): 1.9 fold | Fold Change SEQ ID NO: 7 (gene EIF2AK3): −1.6 | Fold Change by LPS + SEQ 7 (gene EIF2C2): 1.5 fold
